Reference: paper PMC6954417
The exact form of at least one protein or probe is not confirmed. At least one verdict rests on a figure or table, not on a statement of the authors.

Chains of the proteins cited; added tags and fusions are not shown. Lines headed by an entry give the natural chain unless they say otherwise; changes in a name come on top.
UniProt P43351: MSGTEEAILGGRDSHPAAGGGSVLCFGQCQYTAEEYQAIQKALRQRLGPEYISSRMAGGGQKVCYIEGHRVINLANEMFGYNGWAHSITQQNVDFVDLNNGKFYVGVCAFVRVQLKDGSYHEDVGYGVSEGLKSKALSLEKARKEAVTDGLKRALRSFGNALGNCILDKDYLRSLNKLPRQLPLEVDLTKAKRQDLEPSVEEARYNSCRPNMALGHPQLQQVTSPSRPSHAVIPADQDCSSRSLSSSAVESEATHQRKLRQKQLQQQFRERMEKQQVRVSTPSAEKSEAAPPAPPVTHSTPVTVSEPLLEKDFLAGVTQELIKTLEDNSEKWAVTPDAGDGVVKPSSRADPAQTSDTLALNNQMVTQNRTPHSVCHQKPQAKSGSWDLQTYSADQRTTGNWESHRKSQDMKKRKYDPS

Columns and labels:
[1] = target: His6-RAD52 (Homo sapiens) (UniProt P43351); experiment: FRET titration; conditions: wrapped state gives high FRET; FRET: same buffer + 0.1 mg/ml BSA, 25 C; recombinant protein; protein details: His6 (N-terminal); label: 5'-Cy5 and 3'-Cy3 on strand 1
His6-RAD52 + DSS1 = experiment: FRET titration; conditions: 1:20 complex, very small change versus RAD52 alone; FRET: same buffer + 0.1 mg/ml BSA, 25 C; recombinant protein; label: 5'-Cy5 and 3'-Cy3 on strand 1
[2] = tested on: RAD52 (untagged, pET11a) + DSS1; experiment: EMSA; conditions: 1:20 complex, very small change versus RAD52 alone; ssDNA EMSA: 30 mM Tris-acetate pH 7.5, 1 mM DTT, RT, 0.1% glutaraldehyde; recombinant protein; label: 5'-Cy5 and 3'-Cy3 on strand 1
[3] = target: RAD52 (untagged, pET11a) (Homo sapiens) (UniProt P43351); experiment: EMSA; conditions: 10 nM DNA, 15-1000 nM protein, with or without 0.1% glutaraldehyde, ssDNA EMSA: 30 mM Tris-acetate pH 7.5, 1 mM DTT, RT, recombinant protein, label: 5'-Cy5 and 3'-Cy3 on strand 1

Measured: binding result

ATAGTTATGGTGAGGACCCCTTTGTTTC (double strand) [28 bp dsDNA (Cy5-28bp-Cy3 + 28CP)]
binds: all assays above
